Test results from PubChem BioAssay AID2685 (National Center for Advancing Translational Sciences (NCATS), 2010).
This is one part of the list. Shown are side measurements of this screen, not its main read-out; they come without a call. Most of these compounds were active or inconclusive in the main read-out, so they are no random draw. The note in brackets gives the kind of curve behind each potency; many fits are weak.

Assay: qHTS Assay for Lipid Storage Modulators in Drosophila S3 Cells;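 on cell number change: cells counted by Cell Tracker Red CMTPX staining in the red channel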
Conditions: BODIPY lipid droplet fluorescence, 18-24 h; for cell number change: measured here: cell count max response, cells fed with added oleic acid
In short: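 Laser-scanning cytometry quantifies lipid droplet accumulation (500–530 nm total intensity; droplet/cell object ratio) in oleic acid-fed (400 uM added) Drosophila S3 cells treated with a concentration series. 20 uM Triacsin C defined 100% inhibition.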

[1] = measured here: lipid fluorescence (Fed channel) AC50, cells fed with added oleic acid
[2] = measured here: cell number channel AC50, cells fed with added oleic acid

O=c1cccc2n1CC1CC2CN(Cc2c(F)cccc2Cl)C1 (configuration not stated)
cell number change: -22.2%
AC50 [1]: 8.2 µM [falling, partial curve, poor fit]

O=C(Cn1ncc2c3ccccc3n(Cc3cccc(Cl)c3)c2c1=O)N1CCC2(CC1)OCCO2
cell number change: -17.7%
AC50 [1]: 29.1 µM [falling, single point]

CCCNC(=O)N1[C@H]2CC[C@@H]1C(C(=O)OC)=C(c1ccc(OC(F)(F)F)cc1)C2
cell number change: -24%

ClC(Cl)(Cl)c1ccccc1
AC50 [1]: 0.00411 µM [falling, full curve, poor fit]

COc1cc2c3cc1Oc1cc(ccc1O)C[C@@H]1c4c(cc(OC)c(O)c4Oc4cccc(c4)C[C@@H]3N(C)CC2)CC[N+]1(C)C
cell number change: -26%
AC50 [1]: 0.164 µM [falling, full curve, poor fit]

S=C1Nc2ccccc2Sc2ccccc21
cell number change: -5.8%
AC50 [1]: 8.2 µM [falling, partial curve, poor fit]

Cc1ccc(-n2c(O)c(/C=C/C=Nc3ccccc3)c(=O)[nH]c2=O)cc1
cell number change: -32.5%
AC50 [1]: 0.231 µM [falling, full curve, poor fit]

O=C1CC(N2CC=C(c3ccccc3)CC2)C(=O)N1c1ccc(F)cc1 (configuration not stated)
AC50 [2]: 6.51 µM [rising, single point]

COC1=CC2C3Cc4ccc(OC)c(O)c4C2(CCN3C)CC1=O (configuration not stated)
cell number change: 4.91%
AC50 [1]: 4.11 µM [rising, single point]

CN1C(=O)C(=Cc2ccc(N3CCCCCC3)o2)C(=O)N(C)C1=S
cell number change: 8.52%
AC50 [1]: 3.26 µM [falling, partial curve]

O=C(c1ccccc1F)c1cn(CC(=O)N2CCOCC2)c2ccccc12
cell number change: 29.2%
AC50 [1]: 13 µM [rising, partial curve, poor fit]

CC(OC(=O)c1cn(C)c2ccccc12)C(=O)N1CCCC1 (configuration not stated)
cell number change: -24.7%
AC50 [2]: 0.259 µM [falling, full curve, poor fit]
AC50 [1]: 0.461 µM [rising, partial curve, poor fit]

COc1ccc(CNC(=O)CCC(=O)N2C[C@H]3C[C@H](C2)c2cccc(=O)n2C3)cc1OC
cell number change: -0.324%

CC1CN=C(NCc2ccncc2)S1 (configuration not stated)
cell number change: 5.43%

Clc1ccc2c(c1)C(OC1CN3CCC1CC3)c1ccccc1CS2 (configuration not stated)
cell number change: -7.26%

CCN(CC)CCN=Cc1c(O)n(CCC2=CCCCC2)c(=O)[nH]c1=O
AC50 [1]: 29.1 µM [falling, single point]

C=C[C@H]1CN2CC[C@H]1C[C@@H]2[C@@H](O)c1ccnc2ccccc12
cell number change: 5.65%
AC50 [2]: 0.92 µM [rising, full curve, poor fit]

CCCn1cc2c3c(cccc31)C1CC(C)CN(C)C1C2 (configuration not stated)
cell number change: 4.78%
AC50 [1]: 29.1 µM [rising, single point]

CCCn1cc(C(=O)O)cn1
cell number change: -7.91%
AC50 [1]: 0.082 µM [falling, full curve, poor fit]

CCOC(=O)CC1=C(C(=O)OCC)C2(C(=O)N1)C(C(=O)OC)=C(N)Oc1ccccc12 (configuration not stated)
cell number change: -8.38%

Cn1cccc1/C=C1/C(=O)NC(=O)N(Cc2ccccc2)C1=O
cell number change: -15.4%

Oc1ccccc1/C=N/NP(=S)(c1ccccc1)c1ccccc1
AC50 [2]: 6.51 µM [falling, single point]
AC50 [1]: 6.51 µM [falling, single point]

COc1ccc(CN2CCN(Cc3ccccc3)CC2)c(OC)c1
cell number change: 1.1%
AC50 [1]: 29.1 µM [rising, single point]

CCOc1ccc(-c2cc(C)[n+](CCN3CCOCC3)c(-c3ccc(OCC)cc3)c2)cc1
cell number change: -27.5%
AC50 [1]: 0.291 µM [falling, single point]

OC(CNC1CCCCC1)C(F)(F)F (configuration not stated)
cell number change: -24.9%
AC50 [2]: 0.291 µM [falling, full curve, poor fit]
AC50 [1]: 0.731 µM [falling, partial curve, poor fit]

CCNC(=O)NNC(=O)C1CC(c2cccnc2)=NO1 (configuration not stated)
cell number change: -47.2%
AC50 [2]: 20.6 µM [falling, single point]

CC(Cc1ccccc1)NC(N)=O (configuration not stated)
cell number change: 7.81%
AC50 [1]: 0.411 µM [falling, partial curve, poor fit]

CN(C)C(=O)Oc1cc(=O)n2c3c(cccc13)CCC2
cell number change: 19.1%
AC50 [1]: 18.4 µM [rising, single point]

O=C(c1ccc(Cl)cc1)C1CCCN(Cc2ccc3ncccc3c2)C1 (configuration not stated)
cell number change: -20.7%
AC50 [1]: 29.1 µM [falling, single point]

CN1CCN(C(=S)SCC(=O)Nc2ccc(Cl)cc2C(=O)c2ccccc2)CC1
cell number change: 46.7%
AC50 [2]: 25.9 µM [rising, single point]
AC50 [1]: 11.6 µM [rising, partial curve, poor fit]

O=Cc1c(C(=O)O)n(Cc2ccccc2F)c2ccccc12
cell number change: 20.5%

O=C1CC(=O)N(c2ccccc2F)C(=O)N1
cell number change: 4.17%
AC50 [1]: 29.1 µM [falling, single point]

CN1CCCC(C(=O)c2ccc(Cl)cc2)C1 (configuration not stated)
cell number change: -22.3%
AC50 [2]: 5.8 µM [falling, single point]

Cc1ccccc1C(O)(Cc1ccccc1)C1CN2CCC1CC2 (configuration not stated)
cell number change: 4.04%
AC50 [1]: 6.51 µM [falling, single point]

CC(Cl)(Cl)/C(=N/P(=S)(N1CCOCC1)N1CCOCC1)N1CCOCC1
cell number change: -10.2%
AC50 [2]: 0.0058 µM [falling, full curve, poor fit]
AC50 [1]: 1.3 µM [falling, full curve, poor fit]

CC(C)c1ccc(N2C(=O)NC(=O)/C(=C\C=C\c3ccco3)C2=O)cc1
cell number change: -56.2%
AC50 [2]: 20.6 µM [falling, single point]
AC50 [1]: 20.6 µM [falling, single point]

COC(=O)C1=C(c2c(C)noc2C)C[C@@H]2CC[C@H]1N2C(=O)NCCOc1ccccc1
cell number change: 6.08%
AC50 [2]: 1.84 µM [rising, partial curve, poor fit]

Cc1nn(Cc2c(Cl)cccc2Cl)c(Cl)c1C(=O)O
AC50 [2]: 0.58 µM [rising, partial curve]

COC(=O)C1=C(c2cc3ccccc3s2)C[C@@H]2CC[C@H]1N2C
cell number change: 2.7%
AC50 [1]: 0.259 µM [rising, full curve, poor fit]
